Laboratory results taken from paper PMC12418388.
No constants are given. Whether binding was seen depends on the method and setting. Binding calls can cover weak binding; strength is not graded here. For part of these data: In cells and extracts the contact can be indirect.

The chains behind the UniProt entries cited, without tags or fusion partners. Where a name states a change or a piece, a line headed by the entry shows the natural chain unless it says otherwise.
UniProt P54823: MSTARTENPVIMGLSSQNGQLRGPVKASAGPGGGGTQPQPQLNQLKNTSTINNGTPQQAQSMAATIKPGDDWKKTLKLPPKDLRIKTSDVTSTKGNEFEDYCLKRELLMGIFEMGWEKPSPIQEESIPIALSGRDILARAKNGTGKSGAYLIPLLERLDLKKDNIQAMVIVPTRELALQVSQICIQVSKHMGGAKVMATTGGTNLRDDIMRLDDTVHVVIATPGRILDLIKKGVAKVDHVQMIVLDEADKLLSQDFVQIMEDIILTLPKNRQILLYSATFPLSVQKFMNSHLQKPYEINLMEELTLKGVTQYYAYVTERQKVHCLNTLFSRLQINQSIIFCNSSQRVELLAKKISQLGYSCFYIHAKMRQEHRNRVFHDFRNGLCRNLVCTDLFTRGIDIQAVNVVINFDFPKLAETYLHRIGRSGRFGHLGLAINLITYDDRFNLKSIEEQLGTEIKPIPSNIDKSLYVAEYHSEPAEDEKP
UniProt Q6ZQ08: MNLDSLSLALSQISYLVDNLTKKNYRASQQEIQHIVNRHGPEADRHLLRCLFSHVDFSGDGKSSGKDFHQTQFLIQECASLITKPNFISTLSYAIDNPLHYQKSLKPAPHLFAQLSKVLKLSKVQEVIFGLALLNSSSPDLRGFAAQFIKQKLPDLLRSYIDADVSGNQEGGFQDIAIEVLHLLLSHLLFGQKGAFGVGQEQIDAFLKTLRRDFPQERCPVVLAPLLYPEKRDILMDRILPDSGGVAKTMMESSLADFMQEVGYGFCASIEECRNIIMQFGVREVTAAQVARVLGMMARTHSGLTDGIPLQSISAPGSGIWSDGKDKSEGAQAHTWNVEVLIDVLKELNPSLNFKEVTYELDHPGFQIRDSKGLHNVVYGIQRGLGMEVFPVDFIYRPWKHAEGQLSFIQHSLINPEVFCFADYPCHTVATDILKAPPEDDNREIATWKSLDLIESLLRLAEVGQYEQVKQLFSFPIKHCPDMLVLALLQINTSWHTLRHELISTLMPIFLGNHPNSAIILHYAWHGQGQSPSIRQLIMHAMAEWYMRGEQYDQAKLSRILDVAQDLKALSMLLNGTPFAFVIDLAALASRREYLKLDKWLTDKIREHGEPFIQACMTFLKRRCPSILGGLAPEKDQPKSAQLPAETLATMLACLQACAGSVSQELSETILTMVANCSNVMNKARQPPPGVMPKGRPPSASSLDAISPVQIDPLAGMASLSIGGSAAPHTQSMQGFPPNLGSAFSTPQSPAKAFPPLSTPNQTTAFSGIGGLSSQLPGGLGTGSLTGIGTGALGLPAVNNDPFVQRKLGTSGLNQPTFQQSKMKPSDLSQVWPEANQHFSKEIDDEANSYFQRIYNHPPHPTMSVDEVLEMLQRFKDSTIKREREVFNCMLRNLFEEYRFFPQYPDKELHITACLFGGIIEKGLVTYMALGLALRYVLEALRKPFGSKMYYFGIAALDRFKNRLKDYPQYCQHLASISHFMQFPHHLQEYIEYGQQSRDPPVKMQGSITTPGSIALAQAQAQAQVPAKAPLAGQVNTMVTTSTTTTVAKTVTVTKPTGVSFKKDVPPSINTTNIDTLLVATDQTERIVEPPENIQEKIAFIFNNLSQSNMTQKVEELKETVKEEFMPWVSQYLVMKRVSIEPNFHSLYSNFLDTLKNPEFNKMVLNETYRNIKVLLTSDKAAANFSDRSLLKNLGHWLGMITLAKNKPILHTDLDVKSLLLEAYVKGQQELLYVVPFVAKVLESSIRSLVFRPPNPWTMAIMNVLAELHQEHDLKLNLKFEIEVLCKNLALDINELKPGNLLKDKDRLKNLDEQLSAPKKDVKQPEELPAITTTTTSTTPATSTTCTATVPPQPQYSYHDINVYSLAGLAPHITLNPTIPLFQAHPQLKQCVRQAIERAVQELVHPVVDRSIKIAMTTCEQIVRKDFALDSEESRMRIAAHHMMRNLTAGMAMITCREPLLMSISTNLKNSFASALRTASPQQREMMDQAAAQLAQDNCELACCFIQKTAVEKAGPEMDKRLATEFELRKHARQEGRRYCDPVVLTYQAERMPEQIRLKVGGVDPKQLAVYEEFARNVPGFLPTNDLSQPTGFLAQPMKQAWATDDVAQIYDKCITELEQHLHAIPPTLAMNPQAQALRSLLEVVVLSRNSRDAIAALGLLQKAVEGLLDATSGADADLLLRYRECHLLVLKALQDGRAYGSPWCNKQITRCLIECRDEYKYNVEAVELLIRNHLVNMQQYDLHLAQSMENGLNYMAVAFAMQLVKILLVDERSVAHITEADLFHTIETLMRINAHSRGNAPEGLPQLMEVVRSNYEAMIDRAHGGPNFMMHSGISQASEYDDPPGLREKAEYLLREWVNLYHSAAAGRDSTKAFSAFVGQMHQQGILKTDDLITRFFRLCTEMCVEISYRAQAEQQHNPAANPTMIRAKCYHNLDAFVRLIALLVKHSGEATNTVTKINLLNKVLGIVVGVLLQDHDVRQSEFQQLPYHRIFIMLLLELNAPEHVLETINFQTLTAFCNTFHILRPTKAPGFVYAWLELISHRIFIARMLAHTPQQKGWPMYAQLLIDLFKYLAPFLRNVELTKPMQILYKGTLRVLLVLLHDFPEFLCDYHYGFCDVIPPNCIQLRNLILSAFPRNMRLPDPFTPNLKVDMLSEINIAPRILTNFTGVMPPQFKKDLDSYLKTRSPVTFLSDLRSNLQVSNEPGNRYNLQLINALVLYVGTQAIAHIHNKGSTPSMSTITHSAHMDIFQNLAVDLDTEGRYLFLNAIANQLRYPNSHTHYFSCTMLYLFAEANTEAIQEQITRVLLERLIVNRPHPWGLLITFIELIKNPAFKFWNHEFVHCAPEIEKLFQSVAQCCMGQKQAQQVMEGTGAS
UniProt Q62167: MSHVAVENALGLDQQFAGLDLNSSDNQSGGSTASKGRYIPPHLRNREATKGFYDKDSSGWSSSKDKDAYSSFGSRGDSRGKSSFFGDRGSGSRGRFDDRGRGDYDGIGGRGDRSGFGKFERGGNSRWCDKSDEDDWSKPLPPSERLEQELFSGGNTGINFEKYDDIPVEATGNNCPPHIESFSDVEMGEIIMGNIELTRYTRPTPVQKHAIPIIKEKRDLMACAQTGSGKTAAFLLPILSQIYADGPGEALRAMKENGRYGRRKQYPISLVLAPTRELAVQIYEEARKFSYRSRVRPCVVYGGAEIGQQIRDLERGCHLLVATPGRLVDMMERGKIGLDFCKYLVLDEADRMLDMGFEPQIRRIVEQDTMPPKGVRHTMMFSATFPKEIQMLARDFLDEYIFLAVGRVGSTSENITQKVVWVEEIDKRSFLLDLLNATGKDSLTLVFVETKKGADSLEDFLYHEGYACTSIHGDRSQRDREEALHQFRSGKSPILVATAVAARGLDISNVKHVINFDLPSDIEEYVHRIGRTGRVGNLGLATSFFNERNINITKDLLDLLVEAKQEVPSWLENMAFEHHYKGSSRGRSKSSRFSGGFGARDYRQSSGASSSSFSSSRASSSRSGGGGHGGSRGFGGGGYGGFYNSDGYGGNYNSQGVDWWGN

Legend:
[1] = target: DDX6^Mut6 of the co-IP of Supplementary Fig. S6B (UniProt P54823); assay: co-IP; co-IP of wild-type, truncated and mutant DDX6 proteins (Supplementary Fig. S6A, B); cells not given; western blot
[2] = target: DDX6^Mif2 of the co-IP of Supplementary Fig. S6B (UniProt P54823); assay: as above
[3] = target: DDX6^Mut1 of the co-IP of Supplementary Fig. S6B (UniProt P54823); assay: as above
[4] = target: GST-DDX6^Mut6, recombinant (UniProt P54823); assay: pull-down; GST fusion proteins (10 μg) immobilised on Glutathione Sepharose 4B, incubated with purified His-MBP-DDX3X^166-590 in RIPA buffer; western blot; both purified

Substance | binding [1] | binding [2] | binding [3] | binding [4]
CNOT1 (from UniProt Q6ZQ08 1-2375) | binds | binds | – | –
DDX3X found in the co-IP experiments of Supplementary Fig. S6 (from UniProt Q62167 1-662) | binds | binds | binds | –
6xHis-MBP-DDX3X^166-590 (from UniProt Q62167 166-590) (domain or fragment) | – | – | – | binds
